In US20220288124A1:
These are yes or no findings as the source states them, for the method shown. A result given as binding can be weak or reduced; the word gives no strength. For some of these results: Tags and fused reporters may be left off the sequences shown.

Chains of the proteins cited; added tags and fusions are not shown. Lines headed by an entry give the natural chain unless they say otherwise; changes in a name come on top.
UniProt P51654: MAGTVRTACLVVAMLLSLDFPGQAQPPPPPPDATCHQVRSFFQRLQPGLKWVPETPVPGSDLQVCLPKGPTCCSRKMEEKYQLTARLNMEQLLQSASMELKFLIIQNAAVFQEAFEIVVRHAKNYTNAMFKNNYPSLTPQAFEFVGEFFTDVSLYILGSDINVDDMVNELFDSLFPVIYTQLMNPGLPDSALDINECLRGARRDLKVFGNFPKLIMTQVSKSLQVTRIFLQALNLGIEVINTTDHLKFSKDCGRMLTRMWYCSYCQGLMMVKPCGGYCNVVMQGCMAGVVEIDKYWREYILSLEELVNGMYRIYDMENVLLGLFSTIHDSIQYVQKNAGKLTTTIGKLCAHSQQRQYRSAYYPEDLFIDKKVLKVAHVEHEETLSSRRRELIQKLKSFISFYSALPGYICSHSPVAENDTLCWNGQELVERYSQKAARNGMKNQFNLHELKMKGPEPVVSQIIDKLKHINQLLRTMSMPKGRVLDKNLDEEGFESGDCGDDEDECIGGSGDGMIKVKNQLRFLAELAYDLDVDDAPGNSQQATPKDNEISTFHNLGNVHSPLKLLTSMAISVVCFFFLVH

Columns and labels:
[1] = molecular target: hGPC3-N fragment (AA1-358) (human) (UniProt P51654); assay: flow cytometry, intracellular staining of 293T cells transfected with hGPC3-N; gate set on untransfected cells
[2] = molecular target: hGPC3-N fragment (AA1-358) (human) (UniProt P51654); assay: intracellular staining of transfected 293T cells
[3] = molecular target: hGPC3-N fragment (AA1-358) (human) (UniProt P51654); assay: intracellular staining of 293T cells transfected with hGPC3-N or hGPC3-C (summary table)
[4] = molecular target: hGPC3-N fragment (AA1-358) (human) (UniProt P51654); assay: flow cytometry, intracellular staining of 293 cells transfected with hGPC3-N; gate set on untransfected cells
[5] = molecular target: hGPC3-N fragment (AA1-358) (human) (UniProt P51654); assay: staining of transfected 293T cells (as summarised in Example II)
[6] = molecular target: hGPC3-N fragment (AA1-358) (human) (UniProt P51654); assay: Western blot of 293 cells transfected with hGPC3 N-fragment
[7] = molecular target: hGPC3-N fragment (AA1-358) (human) (UniProt P51654); assay: western blot of transfected 293 cells
[8] = molecular target: hGPC3-N fragment (AA1-358) (human) (UniProt P51654); assay: western blot of transfected 293 cells (figure legend)

Row | Binder | binding [1] | binding [2] | binding [3] | binding [4] | binding [5] | binding [6] | binding [7] | binding [8]
1 | mAb 12D7 (mouse hybridoma antibody) (antibody, V domains shown) VH: QVQLQQPGSELVRPGASVKLSCKASGYTFTSYWMHWVKQRLGQGLEWIGNIYPGSGSTNYDEKFKSKGTLTVDTSSSTAYMHLSSLTSEDSAVYYCTRGDYDWVFAYWGQGTLVTVSA VL: DIVMTQSQKFMSTSVGDRVSVTCKASQNVGTNVAWYQQKPGQSPKALIYSASYRYSGVPDRFTGSGSGTDFTLTISNVQSEDLAEYFCQQYNSYPLTFGAGTKLELKR | binds | binds | binds | binds | binds |  |  | 
2 | mAb 6G11 (mouse hybridoma antibody) (antibody, V domains shown) VH: QVQLQQPGSELVRPGASVKLSCKASGYTFTSCWMHWVKQRPGQGLEWIGNIYPGYGNTNYDEKFKNKATLTVDTSSSTAYMQLSGLTSEDSAVYYCTRGSYLYAMDYWGQGTSVTVSS VL: DIQMNQSPSSLSASLGDTITITCHASQNINVWLSWYQQKPGNIPKLLIYKASNLHTGVPSRFSGSGSGTGFTLTISSLQPEDIATYYCQQGQSYPWTFGGGTKLEIKR | binds | binds | binds | binds | binds |  |  | 

Now from value to binder:

Row | binding [1] | binding [2] | binding [3] | binding [4] | binding [5] | binding [6] | binding [7] | binding [8] | Binder
3 |  |  |  |  |  | binds | binds | binds | recombinant mAb 12D7 (12D7 VL and VH fused to human IgG constant regions) (antibody, V domains shown) VH: QVQLQQPGSELVRPGASVKLSCKASGYTFTSYWMHWVKQRLGQGLEWIGNIYPGSGSTNYDEKFKSKGTLTVDTSSSTAYMHLSSLTSEDSAVYYCTRGDYDWVFAYWGQGTLVTVSA VL: DIVMTQSQKFMSTSVGDRVSVTCKASQNVGTNVAWYQQKPGQSPKALIYSASYRYSGVPDRFTGSGSGTDFTLTISNVQSEDLAEYFCQQYNSYPLTFGAGTKLELKR
4 |  |  |  |  |  | binds | binds | binds | recombinant mAb 6G11 (6G11 VL and VH fused to human IgG constant regions) (antibody, V domains shown) VH: QVQLQQPGSELVRPGASVKLSCKASGYTFTSCWMHWVKQRPGQGLEWIGNIYPGYGNTNYDEKFKNKATLTVDTSSSTAYMQLSGLTSEDSAVYYCTRGSYLYAMDYWGQGTSVTVSS VL: DIQMNQSPSSLSASLGDTITITCHASQNINVWLSWYQQKPGNIPKLLIYKASNLHTGVPSRFSGSGSGTGFTLTISSLQPEDIATYYCQQGQSYPWTFGGGTKLEIKR
